# ± gives the standard deviation of the averaged measurements. This is a selection; strong and weak results do not stand in their true shares.
# Legend:
# Assay in all cases: NP40-soluble protein abundance relative to vehicle (solubility fold change) (ratio); higher = more soluble protein in presence of AMP-PNP
# [1] = molecular target: T1, UniProt Q5JRX3 and related entries
# T1 sequence (whole entry): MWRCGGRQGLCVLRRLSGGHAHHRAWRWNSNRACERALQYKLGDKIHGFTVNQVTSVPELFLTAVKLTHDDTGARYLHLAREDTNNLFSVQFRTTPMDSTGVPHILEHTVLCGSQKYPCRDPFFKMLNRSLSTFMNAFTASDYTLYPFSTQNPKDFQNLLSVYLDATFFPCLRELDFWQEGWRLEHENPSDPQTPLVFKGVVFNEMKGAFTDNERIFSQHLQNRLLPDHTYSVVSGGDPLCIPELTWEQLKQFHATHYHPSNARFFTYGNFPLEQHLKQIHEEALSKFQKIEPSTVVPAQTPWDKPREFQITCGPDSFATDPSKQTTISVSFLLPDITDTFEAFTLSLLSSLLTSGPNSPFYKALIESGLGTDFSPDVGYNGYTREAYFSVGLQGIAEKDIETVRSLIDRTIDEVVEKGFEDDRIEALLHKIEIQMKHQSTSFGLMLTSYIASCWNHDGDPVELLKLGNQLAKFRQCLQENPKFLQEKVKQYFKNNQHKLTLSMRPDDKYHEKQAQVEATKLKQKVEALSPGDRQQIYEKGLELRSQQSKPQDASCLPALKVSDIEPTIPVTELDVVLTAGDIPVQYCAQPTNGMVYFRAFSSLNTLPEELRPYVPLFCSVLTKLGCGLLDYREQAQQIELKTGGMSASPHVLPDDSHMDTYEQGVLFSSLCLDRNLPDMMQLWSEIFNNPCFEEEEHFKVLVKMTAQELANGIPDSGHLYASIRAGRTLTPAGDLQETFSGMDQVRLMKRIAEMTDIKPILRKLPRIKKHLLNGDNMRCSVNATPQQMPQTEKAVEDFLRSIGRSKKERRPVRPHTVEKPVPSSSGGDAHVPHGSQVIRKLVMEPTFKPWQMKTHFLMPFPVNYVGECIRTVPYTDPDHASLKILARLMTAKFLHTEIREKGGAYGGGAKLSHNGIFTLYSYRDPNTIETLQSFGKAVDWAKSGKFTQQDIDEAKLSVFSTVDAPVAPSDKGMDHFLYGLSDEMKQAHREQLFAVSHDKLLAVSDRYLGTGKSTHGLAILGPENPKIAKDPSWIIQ
# Summary of the method: (§1)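 Values are fold changes against the detergent-processed vehicle, based on vsn-normalised intensities. Jurkat crude lysate was treated at eight concentrations from 0.1 to 10 mM (10 min at room temperature, then 3 min at 37 °C), solubilised with 0.8% NP40 and benzonase, ultracentrifuged and analysed by TMT-labelled LC-MS/MS over three independent experiments.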
# [2] = molecular target: T2, UniProt Q5SGD2 and related entries
# T2 sequence (whole entry): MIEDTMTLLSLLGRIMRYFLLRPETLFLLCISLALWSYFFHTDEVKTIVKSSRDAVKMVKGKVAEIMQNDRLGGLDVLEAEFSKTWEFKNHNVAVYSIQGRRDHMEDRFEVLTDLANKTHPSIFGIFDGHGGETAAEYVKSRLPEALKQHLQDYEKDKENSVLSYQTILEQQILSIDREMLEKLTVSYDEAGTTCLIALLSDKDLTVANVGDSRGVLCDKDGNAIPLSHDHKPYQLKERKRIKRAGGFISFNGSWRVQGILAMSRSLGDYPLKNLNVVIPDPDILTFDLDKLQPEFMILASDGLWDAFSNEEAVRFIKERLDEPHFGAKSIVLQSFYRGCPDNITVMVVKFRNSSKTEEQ
# Summary of the method: as §1
# [3] = molecular target: T3, UniProt Q5T1V6 and related entries
# T3 sequence (whole entry): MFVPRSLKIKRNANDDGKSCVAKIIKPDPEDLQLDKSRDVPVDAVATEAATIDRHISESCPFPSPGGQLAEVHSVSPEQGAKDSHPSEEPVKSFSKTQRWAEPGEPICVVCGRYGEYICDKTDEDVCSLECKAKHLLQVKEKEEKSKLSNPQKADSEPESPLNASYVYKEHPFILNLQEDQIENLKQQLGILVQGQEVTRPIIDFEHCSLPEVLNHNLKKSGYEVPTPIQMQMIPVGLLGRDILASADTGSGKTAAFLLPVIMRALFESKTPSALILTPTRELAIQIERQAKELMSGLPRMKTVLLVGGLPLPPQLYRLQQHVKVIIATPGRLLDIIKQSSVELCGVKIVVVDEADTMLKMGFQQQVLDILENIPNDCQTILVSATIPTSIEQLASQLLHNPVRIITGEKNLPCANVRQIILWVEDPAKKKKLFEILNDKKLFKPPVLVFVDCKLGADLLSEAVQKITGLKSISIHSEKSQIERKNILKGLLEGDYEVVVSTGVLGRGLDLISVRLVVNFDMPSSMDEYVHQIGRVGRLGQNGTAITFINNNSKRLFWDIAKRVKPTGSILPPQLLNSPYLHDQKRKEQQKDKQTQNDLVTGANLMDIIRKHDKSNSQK
# Summary of the method: as §1
# ZYX = molecular target: T4, ZYX (UniProt Q15942)
# T4 sequence (whole entry): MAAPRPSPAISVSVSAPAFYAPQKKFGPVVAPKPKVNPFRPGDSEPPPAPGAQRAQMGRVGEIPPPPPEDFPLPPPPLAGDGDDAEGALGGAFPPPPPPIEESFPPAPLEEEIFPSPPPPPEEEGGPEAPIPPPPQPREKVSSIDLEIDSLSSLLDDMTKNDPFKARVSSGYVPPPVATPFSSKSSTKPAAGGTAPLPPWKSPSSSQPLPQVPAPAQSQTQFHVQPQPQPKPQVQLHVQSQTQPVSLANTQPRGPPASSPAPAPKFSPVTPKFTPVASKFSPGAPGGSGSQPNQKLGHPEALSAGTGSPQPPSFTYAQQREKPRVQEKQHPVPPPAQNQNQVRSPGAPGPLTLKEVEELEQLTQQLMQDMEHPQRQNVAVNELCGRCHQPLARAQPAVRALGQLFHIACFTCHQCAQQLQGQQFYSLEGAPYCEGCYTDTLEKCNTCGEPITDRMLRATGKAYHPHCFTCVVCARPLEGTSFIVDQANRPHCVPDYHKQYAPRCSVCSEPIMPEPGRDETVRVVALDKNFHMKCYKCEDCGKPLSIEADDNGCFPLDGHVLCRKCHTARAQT
# Summary of the method: as §1
compound,measurement,setting,value
Nc1ncnc2c1ncn2[C@@H]1O[C@H](COP(=O)(O)OP(=O)(O)NP(=O)(O)O)[C@@H](O)[C@H]1O [adenylyl imidodiphosphate],NP40-soluble protein abundance,[1]; concentration: 1mM,0.993 ± 0.013
same,NP40-soluble protein abundance,[1]; concentration: 2mM,0.957 ± 0.058
same,NP40-soluble protein abundance,[1]; concentration: 4mM,0.994 ± 0.014
same,NP40-soluble protein abundance,[1]; concentration: 6mM,0.983 ± 0.026
same,NP40-soluble protein abundance,[1]; concentration: 8mM,0.985 ± 0.024
same,NP40-soluble protein abundance,[1]; concentration: 10mM,0.966 ± 0.02
same,NP40-soluble protein abundance,[2]; concentration: 1mM,1.02 ± 0.029
same,NP40-soluble protein abundance,[2]; concentration: 2mM,1.03 ± 0.049
same,NP40-soluble protein abundance,[2]; concentration: 4mM,1 ± 0.019
same,NP40-soluble protein abundance,[2]; concentration: 6mM,1 ± 0.016
same,NP40-soluble protein abundance,[2]; concentration: 8mM,1.02 ± 0.06
same,NP40-soluble protein abundance,[2]; concentration: 10mM,1.006 ± 0.0075
same,NP40-soluble protein abundance,[3]; concentration: 1mM,1.03 ± 0.03
same,NP40-soluble protein abundance,[3]; concentration: 2mM,0.999 ± 0.021
same,NP40-soluble protein abundance,[3]; concentration: 4mM,1.02 ± 0.023
same,NP40-soluble protein abundance,[3]; concentration: 6mM,0.99 ± 0.019
same,NP40-soluble protein abundance,[3]; concentration: 8mM,1.01 ± 0.016
same,NP40-soluble protein abundance,[3]; concentration: 10mM,0.985 ± 0.021
same,NP40-soluble protein abundance,ZYX; concentration: 1mM,1.03 ± 0.031
same,NP40-soluble protein abundance,ZYX; concentration: 2mM,1.06 ± 0.034
same,NP40-soluble protein abundance,ZYX; concentration: 4mM,1.01 ± 0.059
same,NP40-soluble protein abundance,ZYX; concentration: 6mM,0.99 ± 0.025
same,NP40-soluble protein abundance,ZYX; concentration: 8mM,0.981 ± 0.047
same,NP40-soluble protein abundance,ZYX; concentration: 10mM,0.969 ± 0.058

# A section from further up, as a working copy:
compound,measurement,setting,value
Nc1ncnc2c1ncn2[C@@H]1O[C@H](COP(=O)(O)OP(=O)(O)NP(=O)(O)O)[C@@H](O)[C@H]1O [adenylyl imidodiphosphate],NP40-soluble protein abundance,[2]; concentration: 6mM,1 ± 0.016
same,NP40-soluble protein abundance,[2]; concentration: 8mM,1.02 ± 0.06
